At least one structure is not confirmed: it was looked up by name or label, or the drawing left a doubt. Where a SMILES comes first, the peptide text is derived from it. The star is where a group is joined. Lithocholoyl = C[C@H](CCC(=O)*)[C@H]1CC[C@H]2[C@@H]3CC[C@@H]4C[C@H](O)CC[C@]4(C)[C@H]3CC[C@]12C
Tests used:
[1] = biological target: T1, Gi-coupled receptor APJ (Homo sapiens, UniProt P35414); experiment: HTRF cAMP assay, inhibition of NKH477 stimulated cAMP in HEK cells stably expressing APJ (APJ-h HEK 293 cells); assay type: cell-based; details: read-out: Gi coupling (cAMP inhibition) EC50; Inhibition of NKH477 stimulated cAMP production in APJ-h HEK 293 cells
T1 sequence (P35414 1-380): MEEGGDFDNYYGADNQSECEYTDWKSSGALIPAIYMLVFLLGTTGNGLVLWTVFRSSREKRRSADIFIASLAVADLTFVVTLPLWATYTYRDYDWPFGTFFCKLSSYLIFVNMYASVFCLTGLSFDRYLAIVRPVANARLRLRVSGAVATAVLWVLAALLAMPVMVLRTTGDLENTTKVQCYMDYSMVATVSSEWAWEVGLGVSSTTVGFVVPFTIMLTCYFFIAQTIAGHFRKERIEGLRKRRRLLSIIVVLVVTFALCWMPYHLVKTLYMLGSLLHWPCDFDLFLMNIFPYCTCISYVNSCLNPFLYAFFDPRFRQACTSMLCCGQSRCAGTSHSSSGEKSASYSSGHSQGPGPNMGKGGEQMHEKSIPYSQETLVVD
Source text: HTRF (homogeneous time resolved fluorescence) is a technology developed by Cisbio Bioassays based on TR-FRET (time-resolved fluorescence resonance energy transfer). Cisbio Bioassays has developed a wide selection of HTRF-based assays compatible with whole cells, thereby enabling functional assays to run under more physiological conditions. The IP-One assays are competitive immunoassays using cryptate-labeled anti-IP1 monoclonal antibody and d2-labeled IP1. IP1 is a relatively stable downstream metabolite of IP3, and accumulates in cells following Gq receptor activation.
cAMP kits based on a competitive immunoassay using cryptate-labeled anti-cAMP antibody and d2-labeled cAMP were used to assay the effects of APJ compounds of the present invention. […] Cells are treated with […] doxycycline and seeded in all white 96 well plates @ 40 k/well overnight.

[2] = biological target: T2, APJ receptor (β-arrestin recruitment) (Homo sapiens, UniProt P35414); experiment: β-Arrestin signaling assay (DiscoveRx PathHunter, enzyme fragment complementation); assay type: cell-based; details: read-out: β-arrestin Signaling EC50; PathHunter chemiluminescence
T2 sequence (P35414 1-380): T1 sequence (P35414 1-380)
Source text: Activation of the β-Arrestin signaling pathway was monitored using the commercially available DiscoveRx PathHunter® assay. This assay employs a homogenous, non-imaging assay format called Enzyme Fragment Complementation (EFC) using β-galactosidase (β-Gal) as the functional reporter. […] EA is fused to β-Arrestin and ED is fused to the GPCR of interest. When the GPCR is activated and β-Arrestin is recruited to the receptor, ED and EA complementation occurs, restoring βGal activity which is measured using chemiluminescent PathHunter® Detection Reagent.

SMILES: CC[C@H](C)[C@H](NC(=O)[C@H](Cc1ccccc1)NC(=O)[C@@H](NC(=O)[C@H](CC(=O)O)NC(=O)[C@H](C)NC(=O)[C@H](CO)NC(=O)[C@H](CCCNC(=N)N)NC(=O)[C@H](CCCNC(=N)N)NC(=O)[C@H](CCCCN)NC(=O)[C@H](CCC(=O)O)NC(=O)[C@H](CO)NC(=O)[C@H](CO)NC(=O)[C@H](CCCNC(=N)N)NC(=O)[C@H](CC(=O)O)NC(=O)[C@@H](NC(=O)[C@@H](NC(=O)CC[C@@H](C)[C@H]1CC[C@H]2[C@@H]3CC[C@@H]4C[C@H](O)CC[C@]4(C)[C@H]3CC[C@]12C)[C@@H](C)O)C(C)C)[C@@H](C)CC)C(N)=O [Compound 82] (Lithocholoyl-TVDRSSEKRRSADIFI-NH2; N-terminus assumed)
- EC50 [1]: 142 nM
- EC50 [2]: 168 nM

From US20150011466A1, “APJ Receptor Compounds” (priority 2012, published 2015)
